1 sequence from paper PMC5996148 can be followed below.

The list shows a part of the results.

Test systems include TMEM59 (human); TMEM68 (human); TMEM70 (human); TMEM80 (human); TMEM92 (human); TMEM98 (human); TMSB10 (human); TMSL8 (human); TMUB1 (human); TNF (human); TNFAIP8 (human); TNFRSF11B (human); TNFRSF19 (human); TNFSF15 (human); TNFSF18 (human); TNIP1 (human); TNIP2 (human); TNNC1 (human); TNXB (human); TOM1 (human).
What all share (assay): protein microarray (ProtoArray v5.0), streptavidin-Alexa Fluor 647
Common to all, as to details: 3'-biotin; 20 mM Tris (pH 7.5), 5 mM MgCl2, 100 mM KCl, 0.1% Tween-20, A/T-rich and random oligonucleotide blockers; temperature not stated; high values mean tight binding

On to “GGGAGGCTGAGGCAGG [G4-1 biotinylated (PQS2)]”, for which the binding signal in the experiment on TMEM59 (human) is -0.281 z-score; in the experiment with TMEM68 (human), -0.323 z-score; with TMEM70 (human), -0.253 z-score; in the experiment on TMEM80 (human), -0.281 z-score; in the experiment with TMEM92 (human), -0.288 z-score; in the experiment on TMEM98 (human) it was -0.338 z-score. In addition, the binding signal with TMSB10 (human) is -0.231 z-score; with TMSL8 (human), -0.325 z-score; in the experiment with TMUB1 (human), -0.298 z-score; with TNF (human), -0.271 z-score; in the experiment on TNFAIP8 (human), -0.354 z-score; in the experiment with TNFRSF11B (human), -0.299 z-score. For the same sequence, the binding signal was -0.315 z-score in the experiment on TNFRSF19 (human); -0.316 z-score in the experiment with TNFSF15 (human); -0.302 z-score in the experiment with TNFSF18 (human); -0.336 z-score with TNIP1 (human); -0.308 z-score in the experiment with TNIP2 (human); -0.279 z-score in the experiment with TNNC1 (human). Also, the binding signal was -0.326 z-score with TNXB (human) and -0.298 z-score in the experiment with TOM1 (human).
